Laboratory results: PubChem BioAssay AID2099 (Broad Institute, 2009)
The campaign covered roughly 330,000 compounds. About 230 (0.07%) were called active. Inconclusive means that the source gave no clear call. Such entries were picked first, then a sample of the others.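 Rule for the calls: active = more than half of a compound's replicate wells show inhibition beyond 50%, single wells judged on their own value; inconclusive = some, but no more than half, of replicates pass 50% inhibition; inactive = no replicate passes 50% inhibition.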

By UniProt entry, the sequences of proteins in these tests, tags left out. Residues count along the entry.
UniProt Q9H3R0, 1-420 limits assumed: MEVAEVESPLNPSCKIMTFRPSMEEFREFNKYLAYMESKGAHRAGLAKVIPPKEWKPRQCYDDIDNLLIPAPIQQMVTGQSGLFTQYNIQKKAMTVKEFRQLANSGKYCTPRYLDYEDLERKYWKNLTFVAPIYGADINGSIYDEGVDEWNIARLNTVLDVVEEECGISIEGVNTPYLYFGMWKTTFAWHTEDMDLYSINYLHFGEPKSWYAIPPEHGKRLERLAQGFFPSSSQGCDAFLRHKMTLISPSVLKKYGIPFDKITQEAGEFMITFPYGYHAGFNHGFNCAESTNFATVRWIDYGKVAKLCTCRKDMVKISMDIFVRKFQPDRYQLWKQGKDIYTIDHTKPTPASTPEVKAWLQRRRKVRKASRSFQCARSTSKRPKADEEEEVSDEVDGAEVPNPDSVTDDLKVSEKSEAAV

Molecular target: Lysine-specific demethylase 4C (Homo sapiens) (UniProt Q9H3R0)
Assay: inhibitors of GASC-1 histone demethylase, primary screen, biochemical, fluorescence, DELFIA europium (AID 2099);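 note: signal counts dimethyl H3K9 product captured on neutravidin plate; 0% = median of DMSO wells and 100% = 0.3 times that DMSO median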
Details: GST-JMJD2C(1-420) H3K9me3 demethylation, at 2.35 µM, stronger effect = higher value

SMILES | inhibition
Cn1nc(-c2ccccn2)nc2c(=O)n(C)c(=O)nc1-2 | active: 53.9%
COC(=O)c1ccc(C2C(C(=O)c3ccc(C)o3)=C(O)C(=O)N2c2cc(C)on2)cc1 (stereo not given) | inactive: 4.42%
CCOc1ccccc1N(CC(=O)N(C)Cc1ccccc1)S(=O)(=O)c1ccccc1 | inconclusive: -61%
C/C(=N\NC(=O)c1cccs1)c1cccnc1 | inconclusive: -66.4%
C=CCOc1c(Cl)cc(CNCCC)cc1Cl | inconclusive: -133%
CCOC(=O)CC(NC(=O)C(CC)c1ccccc1)c1ccccc1Cl (stereo not given) | inactive: 1.54%
Cn1c2ccccc2c2nnc(SCc3ccc4nonc4c3)nc21 | inconclusive: -64.6%
COc1ccc2c(c1OC)C(=O)N1C2SC[C@H]1C(=O)NC1CCCCC1 (stereo not given in full) | inconclusive: -329%
CCOc1ccc2nc(SC3CC(=O)N(c4ccc(C)cc4)C3=O)sc2c1 (stereo not given) | inconclusive: -197%
CCc1cc(=O)oc2cc(C)cc(OC(C)C(=O)NC3CCN(Cc4ccccc4)CC3)c12 (stereo not given) | inconclusive: -75.7%
CC(C)(C)c1ccc(CN(Cc2ccccc2)C(c2ccccn2)c2nnnn2C(C)(C)C)cc1 (stereo not given) | inactive: -4.4%
C[C@@H]1C=C(C(=O)O)O[C@H](OCc2ccc(CO)cc2)C1 | inconclusive: -444%
CCCCNC(=O)CN1C(=O)COc2ccc(S(=O)(=O)N3CCCCCC3)cc21 | inconclusive: -89.9%
Cc1c(/C(O)=C2\C(=O)C(=O)N(CCN(C)C)C2c2cccs2)cnn1-c1ccccc1 (stereo not given) | inactive: -19.5%
Cc1cc(C)c(S(=O)(=O)N2CCN(C(=O)c3cc(=O)[nH]c4ccccc34)CC2)c(C)c1 | inactive: 9.92%
COc1ccc(Nc2c3c(nc4ccccc24)CCC3)c(OC)c1 | inactive: 3.32%
COc1cc(O)c(NC(C)=O)c2nonc12 | inactive: -3.31%
COc1ccc(CN2C(=NC(=O)c3ccccc3)SC3CS(=O)(=O)CC32)cc1 (stereo not given) | inconclusive: -117%
O=C(Nc1ccc(Cn2cccn2)cc1)c1ccc(COc2ccccc2Br)cc1 | inactive: 1.82%
CC(c1ccccc1)n1cc(C(=O)NCCCn2ccnc2)nn1 (stereo not given) | active: 55.2%
O=C(Nc1ncccc1O)c1cccc(S(=O)(=O)N2CCCC2)c1 | inconclusive: -96.1%
O=S(=O)(/N=C(/c1ccccc1)N1CCOCC1)c1ccc(F)cc1 | inactive: 6.82%
Cc1nnc(NC(=O)C(C)Sc2nnc(CNC(=O)c3ccccc3F)n2C)s1 (stereo not given) | inconclusive: -228%
CC(Oc1cccc(Cl)c1)C(=O)Nc1cc(S(=O)(=O)N2CCOCC2)ccc1N1CCCC1 (stereo not given) | inconclusive: -87.1%
COc1ccc(S(=O)(=O)N2CCC(C(=O)Nc3ccccc3N3CCCCC3)CC2)cc1OC | inconclusive: -50.3%
COc1ccccc1N1CCN(C(=S)Nc2ccc3nc(N4CCOCC4)cc(C)c3c2)CC1 | inactive: 4.6%
O=C1/C(=C/c2ccc(O)c(O)c2)SC(=S)N1Nc1ccccc1 | inactive: 7.63%
CC(C)C[C@H](NC(=O)C1CC(=O)N(c2ccc3c(c2)OCO3)C1)C(=O)NCc1ccco1 (stereo not given in full) | inconclusive: -58.3%

SMILES | inhibition
C[C@@H]1C=CC(=O)O[C@@H]1c1ccc(C(F)(F)F)cc1 | inconclusive: -173%
O=C(CN1C(=O)/C(=C\c2ccco2)SC1=S)Nc1ccc(O)cc1C(=O)O | inconclusive: -87%
Cc1cccc(/C=N/NC(=O)c2ccc3c(c2)OCCO3)c1O | inconclusive: -113%
Cc1ccc(C(=O)Nc2nnc(C)s2)o1 | inconclusive: -67.1%
CC(=O)c1ccc(N2CCN(C(=S)NCCCN(C)C)CC2)cc1 | inconclusive: -185%
Cc1cccc(N2CCN(C(=O)c3cc(S(=O)(=O)N4CCOCC4)cn3C)CC2C)c1 (stereo not given) | inconclusive: -104%
CN(C(=O)c1ccc(NC(=O)Cc2ccc(NC(=O)C3CCN(C(=O)c4ccccc4)CC3)cc2)cc1)C1CC1 | active: 57.6%
COC(=O)c1ccc(NC(=O)c2ccc(CN3CCOCC3)cc2)cc1 | inconclusive: -211%
COc1ccc(-n2nnnc2CNC(=O)C2CC(=O)N(c3ccc(Cl)cc3)C2)cc1 (stereo not given) | inconclusive: -139%
CN(C)C(=O)CSc1nc2ccc(C(=O)c3ccccc3)cc2[nH]1 | inconclusive: -52.6%
O=C(c1ccc2c(c1)OCO2)N1CCN(S(=O)(=O)N2CCCCC2)CC1 | inconclusive: -50.5%
Cc1ccc(-c2csc(NC(=O)C3=COCCO3)n2)cc1C | inconclusive: -133%
COC(=O)c1ccc(C(=O)NC2CCCc3c2cnn3-c2ccc(C)c(C)c2)cc1 (stereo not given) | inactive: 4.02%
CC(=O)Nc1ccc(NC(=O)C(C)OC(=O)CCCN=C2NS(=O)(=O)c3ccccc32)cc1 (stereo not given) | inconclusive: -175%
COc1cccc(N(C(=O)c2sc(C)nc2C)C(C(=O)NCC2CCCO2)c2ccccc2)c1 (stereo not given) | inactive: -2.8%
COCCN1C(=O)N[C@H](c2cccc(C(F)(F)F)c2)C(C(=O)OC)=C1C | inactive: -5.2%
N/C(=N\OC(=O)COc1ccccc1)c1ccc(Cl)cc1 | inactive: 0.2%
O=c1oc(CCCO)cc2ccccc12 | inactive: 7.35%
O=C(NCC(c1cccnc1)N1CCN(c2ccccc2F)CC1)c1ccccc1 (stereo not given) | inconclusive: -60.4%
O=C1OC[C@H](Cc2ccc3c(c2)OCO3)/C1=C\c1ccc2c(c1)OCO2 | inconclusive: -460%
CC1(C)CC(CC(=O)NC(=S)Nc2ccc([N+](=O)[O-])cc2)C(=O)O1 (stereo not given) | inconclusive: -191%
CC(C)c1ccc(N2C(=O)CC(Sc3ncn[nH]3)C2=O)cc1 (stereo not given) | inconclusive: -107%
CCC1(c2ccccc2)NC(=O)N(CC(=O)N(C)Cc2ccccc2)C1=O (stereo not given) | inactive: -11%
Cc1nc(N)sc1N=Nc1ccc(Br)cc1 | inconclusive: -88.5%
O=C(NO)c1ccccc1O | inconclusive: -69.9%
CC1CCCN(CCCNC(=O)c2coc3nc4ccccc4nc23)C1 (stereo not given) | inactive: -4.92%
O=C(/C=C/c1ccc(O)c(O)c1)O[C@@H]1C[C@](O)(C(=O)O)C[C@@H](O)[C@H]1O | inconclusive: -53.5%

4 entries out of the list, ordered by molar mass, ascending:
SMILES | inhibition
O=C(NO)c1ccccc1O | inconclusive: -69.9%
C[C@@H]1C=CC(=O)O[C@@H]1c1ccc(C(F)(F)F)cc1 | inconclusive: -173%
COCCN1C(=O)N[C@H](c2cccc(C(F)(F)F)c2)C(C(=O)OC)=C1C | inactive: -5.2%
CN(C(=O)c1ccc(NC(=O)Cc2ccc(NC(=O)C3CCN(C(=O)c4ccccc4)CC3)cc2)cc1)C1CC1 | active: 57.6%
